## Primary screen of a compound library

A: 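Whole-cell assay for inhibitors of Mycobacterium tuberculosis growth, labelled Cornell in the record; the read-out is not stated. The concentration is filed as 10 mM, unlikely as a test dose, so the dose is not known. Higher means stronger inhibition (inferred from two other growth screens of the library). Of about 53,000 compounds tested this way, about 900 (1.7%) reached 50% or more in at least one test.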
B: 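Assay on Mycobacterium tuberculosis, filed only as a heat shock assay from Cornell; the read-out is not stated. The concentration is filed as 10 mM, unlikely as a test dose, so the dose is not known. Higher reads as stronger inhibition (inferred: compounds with an IC50 in retests scored well above the rest). Of about 69,000 compounds tested this way, about 930 (1.4%) reached 50% or more in at least one test.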

Each number is a percent effect as filed. The controls that fix the scale are not given in the record; negative values are as filed. This is an unselected part of the compounds tested.

* Cn1cc(-c2csc(N3CCCCCC3)n2)cn1 : A: 18.17%; B: 70.2%
* CC(C)(C)c1nc(CN2CCCC(Cn3cncn3)C2)no1 (stereo unspecified) : A: 0.5634%; B: -4.592%
* CCCc1noc(CN(C)Cc2ccc3c(c2)OCO3)n1 : A: 8.484%; B: 23.63%
* CCOCCC(=O)N1CCc2cccc(S(=O)(=O)N3CCOCC3)c2C1 : A: -1.368%; B: -25.65%
* CC(C)(C)CNC1(Cc2cc(C(C)(C)O)on2)COC1 : A: 15.57%; B: -4.671%
* CCOCC1CN(C(=O)c2ccco2)Cc2nn(C)cc21 (stereo unspecified) : A: 11.88%; B: -10.25%
* O=C(CN1C(=O)CCC1=O)N1CCC(CSCc2ccco2)CC1 : A: 5.101%; B: 15.6%
* CCCN(C(=O)c1ccccn1)c1nc2c(s1)CCc1c-2cnn1C : A: 16.33%; B: 103.2%
* CCOCCN1CCN(Cc2nnc(-c3occc3C)o2)CC1 : A: 9.302%; B: -19.55%
* COCCn1ccc(NC(=O)CNC(=O)CC(C)(C)C)n1 : A: -11.97%; B: -16.53%
* Cc1cccc(C(=O)N2CC[C@]3(C[C@H](OCc4ccccn4)CO3)C2)c1.O=C(O)C(F)(F)F : A: -13.38%; B: -15.01%
* COCc1ncc(CN2CC[C@@](O)(COC)C(C)(C)C2)cn1 : A: -12.52%; B: -4.585%
* O=C(CCn1cncn1)N1CCCC1c1noc(C2CC2)n1 (stereo unspecified) : B: 5.737%
* CC(=O)N1CCC(C(=O)c2cnn(-c3ccccc3)c2N)C1 (stereo unspecified) : A: 3.803%; B: 5.105%
* Cc1ccc(NC2CCN(C(=O)CCCc3ccccn3)CC2)cc1 : B: 23.76%
* Cc1nnc2n1CCN(Cc1csc(COc3ccccc3)n1)C2 : A: 14.65%; B: -12.15%
* Cn1cc(C(=O)N2CCOc3cc(F)ccc32)ccc1=O : B: 3.754%
* CCNC(=O)[C@@H]1C[C@@H](n2cc(CC3CCCCC3)nn2)CN1 : A: -2.699%; B: 1.057%
* CCOCC1CN(C(=O)c2ccco2)Cc2cnn(C)c21 (stereo unspecified) : A: 16.02%; B: -17.78%
* Cc1nc(N2CCCN(C(=O)c3ccsc3)CC2)c2cnn(C)c2n1 : A: 0.3905%; B: 0.9653%
* CCc1noc(CN(CC)C(=O)CC2C(=O)NCCN2CC=C(C)C)n1 (stereo unspecified) : B: -17.71%
* Cc1ccnc(C(NC(=O)c2oc(C)nc2C)C2CC2)n1 (stereo unspecified) : A: -35.69%; B: 11.07%
* CN(Cc1cn2c(n1)CN(CC1CC1)CC2)Cc1ccco1.O=C(O)C(F)(F)F.O=C(O)C(F)(F)F : B: 9.036%
* Cc1nc(N(C)C)ncc1C(=O)N(Cc1ccncc1)CC1CCCO1 (stereo unspecified) : B: -178.1%
* Cn1ccnc1CN1CCN(Cc2cc(-c3ccccc3)no2)CC1 : B: -2.542%
* [H][C@]12CCN(C(=O)c3ccno3)[C@@]1([H])CC(=O)N2CC1CC1 : A: 11.17%; B: 10.45%
* COCc1nn(CC2CC2)c2c1CN(Cc1cncn1C)CC2.O=C(O)C(F)(F)F : B: -1.771%
* CNC(=O)CN1CCC(CN(C)Cc2ccncc2Cl)CC1 : A: 24.27%; B: 3.453%
* CC(C(=O)NC1(C#N)CCCCC1)N1CCc2c(ncn2C)C1 (stereo unspecified) : B: -171.6%
* O=C(NCCc1ccn(-c2ccc(F)cc2)n1)C1CCCO1 (stereo unspecified) : A: -6.051%; B: 4.305%
* O=C(NCC(O)c1ccc(Cl)s1)c1ccoc1 (stereo unspecified) : A: 25.83%; B: 1.412%
* Cc1c(CN2CCCC2(C)C(=O)NC2CCCC2)cnn1C (stereo unspecified) : A: -2.511%; B: 19.7%
* N#Cc1cn(C2CC2)c(=O)n(CC(O)c2ccccc2C(F)(F)F)c1=O (stereo unspecified) : B: 12.67%
* O=C(O)C(F)(F)F.O=C(c1cnccn1)N1CCCC2(CCN(c3ncccn3)C2)C1 (stereo unspecified) : B: -10.75%
* [H][C@@]12CN(S(=O)(=O)c3cccc(C)c3)C[C@]1([H])OCCN2C(C)C : A: -17.79%; B: 1.533%
* COc1cccc2c1OCC(C(=O)NCc1c(C)noc1C)C2 (stereo unspecified) : A: 22.5%; B: -0.9859%
* CCC(=O)N1CCC(Cc2nccnc2Nc2ccccn2)CC1 : B: -25.79%
* CC(Nc1cccc(CN2CCOC2=O)c1)C(=O)Nc1ccccc1F (stereo unspecified) : A: 17.58%; B: 14.96%
* CCOc1cc(CNC(=O)c2cc(-c3ccccn3)no2)ccn1 : A: 0.6203%; B: 5.21%
* CC(=O)NCC1CCN(C(=O)c2c[nH]c3cc(Cl)ccc23)CC1 : B: 3.244%
* CC(C)(C)C(=O)NCC(=O)NCCc1nc(C(F)(F)F)cs1 : B: 13.03%
* [H][C@@]12CN(Cc3cccnc3)C[C@]1([H])C(=O)NC21CCN(C(C)=O)CC1 : B: -11.82%
* CCOCCN1CCc2cncnc2C1 : A: -11.31%; B: -8.789%
* CC(O)Cc1cn(CC2CCN(C3CCSCC3)CC2)nn1 (stereo unspecified) : B: -122.4%
* CCN(CCNC(=O)c1cccnc1OCCOC)C1CC1 : A: -0.9448%; B: -5.204%
* COc1c(C2CCCN2CC(=O)Nc2nccs2)c(C)nn1C (stereo unspecified) : A: -7.391%; B: 8.304%
* NC(=O)C(CNC(=O)CCc1ccsc1)Cc1ccc(F)cc1 (stereo unspecified) : A: -3.095%; B: 3.58%

Once more, the final 4:

CC(O)Cc1cn(CC2CCN(C3CCSCC3)CC2)nn1 (stereo unspecified) gave B: -122.4%.
CCN(CCNC(=O)c1cccnc1OCCOC)C1CC1 gave A: -0.9448%; B: -5.204%.
COc1c(C2CCCN2CC(=O)Nc2nccs2)c(C)nn1C (stereo unspecified) gave A: -7.391%; B: 8.304%.
NC(=O)C(CNC(=O)CCc1ccsc1)Cc1ccc(F)cc1 (stereo unspecified) gave A: -3.095%; B: 3.58%.

From ChEMBL document CHEMBL3988442, “University of Dundee, Small-Polar-MMV Screening Library” (2021).